# Reference: PubChem BioAssay AID1347423 (Functional Genomics Laboratory (NCATS/FGL), 2020)
# Out of some 52,000 sequences screened, about 210 (0.4%) were called active.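 Rule for the calls: active = gene whose silencing raises cell survival under the drug, median off-target-corrected z-score across its silencing RNAs 2 or more; inactive = the rest.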 Some of the results follow.
# Experiment: Resistance to Poly (ADP-Ribose) Polymerase inhibitor: Gene Identification via Genome-wide siRNA Screen
# Details: mouse BRCA2 R2336H ES cells, olaparib, CellTiter-Glo viability; stronger effect = higher value
# How it was run: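 Genome-wide siRNA screen (3 siRNAs/gene, 20 nM) in mouse ES cells carrying hypomorphic BRCA2 R2336H; olaparib 500 nM added 48 h post-transfection, CellTiter-Glo viability 72 h later. Normalized to plate-median negative control; MAD z-scores, gene median, seed-adjusted.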
row,Sequence,z-score
1,GGCUGCUUAGCUUUAAUGGTT against Gm1568,inactive: 0.354
2,GGGUUCACCUUGACAUCCATT against 2400003B06Rik,inactive: 1.95
3,GGACACAAUUAUGAGAACATT against C130090K23Rik,inactive: -1.31
4,GCCUCAUAAAUAACGUGAATT against Nts,inactive: 0.51
5,GGUUAACACCUUCAUGUCCTT against Ntsr1,inactive: 0.0199
6,GGAAGCCUUUCAGAAGACCTT against Akr1b8,inactive: 0.0699
7,GCGAUUAAGAGCACUUGACTT against Aoc2,inactive: 0.0892
8,GCUUCACCAGAGAUGGAAUTT against Slfn3,inactive: 1.25
9,GCAAACAGCUAGUAAAAUGTT against Pscd3,inactive: -0.86
10,GCUGGGAAGACGUAUGAGGTT against Snx9,inactive: 0.173
11,GCUGAUGCUCUUAAGCUAUTT against 4930563C04Rik,inactive: -1.11
12,GGAAUGAGUUUCACAGUUUTT against Fech,inactive: -1.3
13,CCAGUCAGUCAAUUAGACUTT against Pja1,inactive: 0.445
14,GGACUCCACUCCAAAUACATT against Tnfsf8,inactive: -0.133
15,GGAAGUUCAACACCUCCAGTT against BC023296,inactive: -0.673
16,GCCUUUGUAGGUUCAAGUGTT against 2310001H12Rik,inactive: 1.78
17,GGCUUACAAUGUGAUUUACTT against Cd7,inactive: 1.71
18,GGGACCACUCCUUCAUCACTT against A630001G21Rik,inactive: -0.163
19,GCCUCACUUUGCCAUGCAUTT against Pou4f1,inactive: -0.33
20,GGAAUAUGGAAAGACCUUUTT against 6330581L23Rik,inactive: -0.228
21,GGUAAUGAAGGAACUGGAUTT against S100a1,inactive: 0.603
22,GGGUUUUUACAUUCAGAAGTT against Trib2,inactive: 0.293

row,Sequence,z-score
1,CCAAAGCUAAAACGGGUGGTT against 2700055K07Rik,inactive: -1.32
2,CCUCACCGAGUGGUUUAGCTT against BC034204,inactive: -0.879
3,GGGUGACAGGUUGAUCUCATT against Tcn2,inactive: -1.86
4,CGCUAUGAAACCUCACUAATT against E2f1,inactive: 0.197
5,GUACUGAUACUAGGCUCCUTT against Olfr1387,inactive: -0.701
6,GGUUCAUAAAGACAAACCUTT against V1re13,inactive: 0.0117
7,CGAGCAGAGUUUUUGAAUATT against Cald1,inactive: 0.134
8,GCACCUGAGCUUUCGAAUATT against 1810037C20Rik,inactive: 0.135
9,GGGAUACUCCAGACAAGGUTT against Dub2a,inactive: 1.11
10,GCAAAUUAAGCACUGUAAGTT against BC042698,inactive: -0.341
11,GCUGUUAGCCUUAAAGUCATT against Hibch,inactive: 1.06
12,GUCCUAGAGGAUCUGGAUGTT against V1rh10,inactive: -1.19
13,GCAGUAACCGUGACCAGAUTT against Slc35a5,inactive: -1.08
14,GCAGUGAUCCAUGAGCCUATT against Eif5a,inactive: -0.0804
15,GCAAUUAGUCCCUAUUUACTT against Vps41,inactive: 0.633
16,CCUUGUACACGGAUUGAAUTT against Itga6,active: 2.44
17,GCAUCUACAAAUGUUUCAGTT against D730019B10Rik,inactive: 0.543
18,GGUUAAGGAAAUAUUGUGATT against 1200011I18Rik,inactive: 0.0353
19,GCUGAGGGUUGAUUAGUGGTT against H2-Bl,inactive: -1.2
20,GGAUAGAAUGGACUUUGAATT against Ulk2,inactive: -0.163
21,GGAGAAUAAGCAAAUCCUUTT against 4930452B06Rik,inactive: 0.895
22,GCCCAAUGUCUCAGAUUAUTT against Dgkg,inactive: -0.212

row,Sequence,z-score
1,GGAAUCAGUCGCAUCACUUTT against E130012K09,inactive: -1.57
2,CCUUUCACUAGCUAAGUGATT against 4632423N09Rik,inactive: 0.558
3,GGAGAUUUAUUAAACUGGATT against Ell2,inactive: -0.896
4,GGAAGUCGAGGUAUACACUTT against Pax2,inactive: 0.798
5,GUGGCCAAAACAACAUGCATT against Olfr1348,inactive: 0.822
6,GGACAUUGACCUGUUCGGCTT against Eef1d,inactive: -1.11
7,CCAUUACUCGCAUCUGGGATT against Tcfap2c,inactive: 2.28
8,GCCGAAUAUUAAAUGGUUUTT against BC003262,inactive: 1.77
9,GGAUGUCAGAUUUGUCAGCTT against Trpm7,inactive: -0.312
10,GGACAACUCGAUUUUAUCCTT against Nudt15,inactive: 0.0702
11,GCCUGAUAGUGGUGGACAGTT against 2310005G13Rik,inactive: 2.52
12,CCGGAUCAUCCUGGAGAUUTT against Krt1-13,inactive: 0.237
13,GGGAGACUCCUUUUGCACUTT against Wnt1,inactive: 0.264
14,GGAGGCUUCAUUCUGCUUUTT against D6Ertd32e,inactive: 0.658
15,GGAGAAAUAAGUGCAGGUGTT against 4930539I12Rik,inactive: -1.19
16,GCAACCUAUGUCUGCAACUTT against Ecg2,inactive: -1.45
17,GCAAAUUUUAUAUGCGACUTT against Glipr1,inactive: 0.746
18,GCUGGAUUCUCAAAGGGAATT against A530016O06Rik,inactive: -0.14
19,GGACAUGGAUUUGAUAGACTT against Acaa2,inactive: -1.36
20,GCGAAGAUCACCAUGUCUCTT against Oosp1,inactive: 0.688
21,GGUUUCUUCGAAUUACUGUTT against Ugt1a10,inactive: -0.00854
22,GCUAAGCGAAGAGUUUAACTT against Dlgap3,inactive: -0.0125
